Source: patent publication US20140314740A1, “COMPOSITIONS AND METHODS FOR THE PREVENTION OR TREATMENT OF DIABETIC COMPLICATIONS” (The Johns Hopkins University, priority 2011, published 2014)
“Also recorded” adds a separate entry of the source. At least one compound was matched to its structure with a doubt left.

What was measured:
Type in all cases: in vivo, C57BL/6 mice
Details in all cases: 1 month of diabetes; forskolin 0.5 mg/kg daily IP
CRYBB2 mRNA = assay: Real-time RT-PCR of CRYBB2 mRNA in retina and WBCs of diabetic mice
superoxide radicals = assay: Superoxide radical assay (hydroethidine-induced fluorescence) in retinal homogenates of diabetic mice
Method: Superoxide radicals were measured in retinal homogenates by measuring dihydroethidine-induced fluorescence (Georgiou et al., 2008; Chen et al., 2009). Briefly, 200 μl reaction mixtures of freshly prepared retinal homogenates (20 μg protein) containing 2.5 μM dihydroethidium and 0.05 μg/μl salmon testes DNA were placed in 96-well microplates at 37° C. for 30 min. The fluorescence was measured at an excitation of 480 nm and an emission of 610 nm. Each sample was assayed in triplicate.

Vegf mRNA = assay: Real-time RT-PCR of Vegf mRNA in retina of diabetic mice

C=C[C@@]1(C)CC(=O)[C@]2(O)[C@@]3(C)[C@@H](O)CCC(C)(C)[C@@H]3[C@H](O)[C@H](OC(C)=O)[C@@]2(C)O1 [forskolin]
elevation of CRYBB2 mRNA in the retina (CRYBB2 mRNA): significantly suppressed; also recorded: blocked; also recorded: prevented
increase of CRYBB2 mRNA in WBCs (CRYBB2 mRNA): blocked
increase of superoxide radicals (hydroethidine-induced fluorescence) in retinal homogenates (superoxide radicals): significantly blocked; also recorded: prevented
increase in Vegf mRNA in the retina (Vegf mRNA): blocked; also recorded: prevented
